Where a chain is given by its changes, count along the chain named. No constants are given. Whether binding was seen depends on the method and setting. In cells and extracts the contact can be indirect. Some entries that bind do so weakly or less than the wild type. For part of these data: Where a sequence is shown, tags or fusion partners need not be part of it.

The chains behind the UniProt entries cited, without tags or fusion partners.
UniProt P16591: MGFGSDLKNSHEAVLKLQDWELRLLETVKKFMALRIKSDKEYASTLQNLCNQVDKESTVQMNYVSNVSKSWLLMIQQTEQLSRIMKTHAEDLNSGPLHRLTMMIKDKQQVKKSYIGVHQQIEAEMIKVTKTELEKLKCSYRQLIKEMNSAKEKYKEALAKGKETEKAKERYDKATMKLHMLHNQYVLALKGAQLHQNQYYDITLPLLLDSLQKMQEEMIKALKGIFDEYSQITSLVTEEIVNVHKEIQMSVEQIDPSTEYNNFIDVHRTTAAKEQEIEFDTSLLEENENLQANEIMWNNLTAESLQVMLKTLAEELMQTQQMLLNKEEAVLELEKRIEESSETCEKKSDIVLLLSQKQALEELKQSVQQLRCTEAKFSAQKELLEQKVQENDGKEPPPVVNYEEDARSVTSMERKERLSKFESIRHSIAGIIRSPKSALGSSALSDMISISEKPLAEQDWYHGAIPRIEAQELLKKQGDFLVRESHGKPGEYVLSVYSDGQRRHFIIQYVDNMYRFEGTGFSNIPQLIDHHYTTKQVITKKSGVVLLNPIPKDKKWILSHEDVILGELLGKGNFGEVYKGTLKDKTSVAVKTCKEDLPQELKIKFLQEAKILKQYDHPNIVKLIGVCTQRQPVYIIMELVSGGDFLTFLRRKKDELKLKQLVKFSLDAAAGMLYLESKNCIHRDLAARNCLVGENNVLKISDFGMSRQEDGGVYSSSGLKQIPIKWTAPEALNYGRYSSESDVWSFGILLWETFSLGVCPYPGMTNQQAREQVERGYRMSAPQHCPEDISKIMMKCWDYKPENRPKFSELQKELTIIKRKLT
UniProt P27986: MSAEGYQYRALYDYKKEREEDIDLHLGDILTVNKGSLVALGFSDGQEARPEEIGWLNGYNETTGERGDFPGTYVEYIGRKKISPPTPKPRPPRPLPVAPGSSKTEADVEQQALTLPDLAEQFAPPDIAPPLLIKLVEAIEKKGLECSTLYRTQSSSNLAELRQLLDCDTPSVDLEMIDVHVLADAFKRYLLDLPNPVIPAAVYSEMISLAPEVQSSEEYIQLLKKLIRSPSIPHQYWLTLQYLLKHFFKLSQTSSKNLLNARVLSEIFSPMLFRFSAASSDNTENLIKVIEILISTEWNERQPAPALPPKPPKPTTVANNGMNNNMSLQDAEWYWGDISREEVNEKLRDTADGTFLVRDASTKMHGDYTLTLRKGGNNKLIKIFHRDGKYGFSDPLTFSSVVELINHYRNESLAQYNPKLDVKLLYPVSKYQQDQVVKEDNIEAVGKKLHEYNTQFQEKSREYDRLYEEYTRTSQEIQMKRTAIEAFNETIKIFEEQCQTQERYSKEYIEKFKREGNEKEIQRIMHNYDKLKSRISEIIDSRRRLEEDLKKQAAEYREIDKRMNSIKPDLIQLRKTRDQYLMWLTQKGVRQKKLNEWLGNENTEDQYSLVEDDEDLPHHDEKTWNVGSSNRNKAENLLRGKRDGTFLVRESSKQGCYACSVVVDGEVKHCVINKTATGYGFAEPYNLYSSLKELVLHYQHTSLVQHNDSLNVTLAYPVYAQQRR
UniProt P35568: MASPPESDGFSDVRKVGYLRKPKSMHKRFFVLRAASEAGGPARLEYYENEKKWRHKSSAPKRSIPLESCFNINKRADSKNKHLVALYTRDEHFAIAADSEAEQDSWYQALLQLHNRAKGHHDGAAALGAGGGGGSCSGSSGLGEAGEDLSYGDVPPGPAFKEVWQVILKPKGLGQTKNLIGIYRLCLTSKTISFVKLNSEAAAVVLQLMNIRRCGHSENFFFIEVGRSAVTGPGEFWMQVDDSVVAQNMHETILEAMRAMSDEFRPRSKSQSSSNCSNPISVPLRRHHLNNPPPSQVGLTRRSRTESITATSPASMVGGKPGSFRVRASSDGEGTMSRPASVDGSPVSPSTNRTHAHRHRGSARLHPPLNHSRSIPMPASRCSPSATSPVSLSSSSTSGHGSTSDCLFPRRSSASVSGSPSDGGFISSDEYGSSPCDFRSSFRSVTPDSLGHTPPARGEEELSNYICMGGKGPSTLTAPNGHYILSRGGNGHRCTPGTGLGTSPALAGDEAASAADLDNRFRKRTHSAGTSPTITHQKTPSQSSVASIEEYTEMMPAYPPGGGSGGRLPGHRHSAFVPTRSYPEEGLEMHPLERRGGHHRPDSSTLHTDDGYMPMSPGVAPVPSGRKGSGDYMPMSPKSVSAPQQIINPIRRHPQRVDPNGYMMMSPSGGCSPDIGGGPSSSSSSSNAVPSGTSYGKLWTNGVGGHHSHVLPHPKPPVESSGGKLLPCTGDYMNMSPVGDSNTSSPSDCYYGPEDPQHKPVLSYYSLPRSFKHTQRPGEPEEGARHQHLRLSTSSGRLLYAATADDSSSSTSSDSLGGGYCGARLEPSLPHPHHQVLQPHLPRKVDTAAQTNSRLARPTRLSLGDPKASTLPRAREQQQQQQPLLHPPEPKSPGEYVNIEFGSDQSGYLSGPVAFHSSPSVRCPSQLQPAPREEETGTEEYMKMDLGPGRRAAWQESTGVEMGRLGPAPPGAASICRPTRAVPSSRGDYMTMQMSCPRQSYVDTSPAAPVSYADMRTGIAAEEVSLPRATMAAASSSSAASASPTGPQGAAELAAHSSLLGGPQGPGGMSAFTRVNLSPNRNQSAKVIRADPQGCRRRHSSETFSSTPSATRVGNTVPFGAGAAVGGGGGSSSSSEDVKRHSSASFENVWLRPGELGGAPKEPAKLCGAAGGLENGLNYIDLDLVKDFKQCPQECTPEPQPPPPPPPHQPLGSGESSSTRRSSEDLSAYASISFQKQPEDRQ
UniProt O00459: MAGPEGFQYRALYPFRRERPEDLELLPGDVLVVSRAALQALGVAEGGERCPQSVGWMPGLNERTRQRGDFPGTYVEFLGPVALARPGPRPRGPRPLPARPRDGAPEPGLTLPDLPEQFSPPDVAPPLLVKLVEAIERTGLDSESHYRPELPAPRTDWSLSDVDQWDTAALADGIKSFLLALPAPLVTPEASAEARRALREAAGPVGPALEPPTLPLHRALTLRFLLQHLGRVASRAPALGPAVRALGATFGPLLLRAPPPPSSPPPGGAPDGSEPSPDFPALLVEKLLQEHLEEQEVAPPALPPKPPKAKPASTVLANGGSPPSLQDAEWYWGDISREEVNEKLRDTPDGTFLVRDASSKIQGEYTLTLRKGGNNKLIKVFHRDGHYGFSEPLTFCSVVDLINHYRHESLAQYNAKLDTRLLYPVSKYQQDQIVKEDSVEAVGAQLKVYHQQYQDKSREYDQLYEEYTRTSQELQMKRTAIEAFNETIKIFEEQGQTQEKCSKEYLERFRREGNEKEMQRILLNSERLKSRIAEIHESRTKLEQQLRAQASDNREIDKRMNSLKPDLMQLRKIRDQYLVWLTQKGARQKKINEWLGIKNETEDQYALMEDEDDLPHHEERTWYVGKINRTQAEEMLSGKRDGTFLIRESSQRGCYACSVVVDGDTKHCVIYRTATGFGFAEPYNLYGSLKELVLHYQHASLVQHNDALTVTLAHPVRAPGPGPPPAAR

For assay [1], the target named is T1, Myc-tagged IRS4 (insulin receptor substrate 4), full-length (human) (UniProt O14654).
T1 sequence: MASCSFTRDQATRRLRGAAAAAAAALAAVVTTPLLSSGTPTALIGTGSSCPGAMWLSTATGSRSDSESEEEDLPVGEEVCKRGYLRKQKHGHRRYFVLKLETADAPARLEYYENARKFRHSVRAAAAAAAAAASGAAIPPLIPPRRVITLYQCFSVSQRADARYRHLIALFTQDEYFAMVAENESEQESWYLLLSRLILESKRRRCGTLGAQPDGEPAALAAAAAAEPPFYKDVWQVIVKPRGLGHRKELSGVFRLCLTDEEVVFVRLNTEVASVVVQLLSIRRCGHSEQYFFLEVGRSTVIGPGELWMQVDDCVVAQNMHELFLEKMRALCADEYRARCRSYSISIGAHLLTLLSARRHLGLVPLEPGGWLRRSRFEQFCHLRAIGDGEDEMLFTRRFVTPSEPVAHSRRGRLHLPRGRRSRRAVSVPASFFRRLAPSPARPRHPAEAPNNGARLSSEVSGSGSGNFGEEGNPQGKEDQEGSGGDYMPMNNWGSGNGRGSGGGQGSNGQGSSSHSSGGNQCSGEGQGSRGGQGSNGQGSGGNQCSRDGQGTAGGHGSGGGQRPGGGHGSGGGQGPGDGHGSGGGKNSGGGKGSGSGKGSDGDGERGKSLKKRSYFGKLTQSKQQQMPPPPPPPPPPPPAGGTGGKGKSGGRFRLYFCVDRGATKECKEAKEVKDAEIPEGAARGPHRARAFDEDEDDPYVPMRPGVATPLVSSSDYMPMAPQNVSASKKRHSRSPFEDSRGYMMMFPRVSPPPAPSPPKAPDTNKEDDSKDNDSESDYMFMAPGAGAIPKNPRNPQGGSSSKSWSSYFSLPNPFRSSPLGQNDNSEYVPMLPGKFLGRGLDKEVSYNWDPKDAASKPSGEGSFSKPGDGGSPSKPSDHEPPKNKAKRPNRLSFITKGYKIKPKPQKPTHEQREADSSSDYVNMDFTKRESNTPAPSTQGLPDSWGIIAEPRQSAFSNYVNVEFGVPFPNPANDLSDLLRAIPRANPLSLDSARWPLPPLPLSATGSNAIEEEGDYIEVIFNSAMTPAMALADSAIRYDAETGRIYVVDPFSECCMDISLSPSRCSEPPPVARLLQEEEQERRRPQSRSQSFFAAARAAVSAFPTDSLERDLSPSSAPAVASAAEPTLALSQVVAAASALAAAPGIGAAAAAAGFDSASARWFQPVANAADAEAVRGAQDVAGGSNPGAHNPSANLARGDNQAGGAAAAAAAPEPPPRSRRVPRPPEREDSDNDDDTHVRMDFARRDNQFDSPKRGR
Put plainly: co-IP; HEK293FT cells transiently co-transfected; lysis in 20 mM HEPES pH 7.5, 150 mM NaCl, 1% Nonidet P-40, 1 mM sodium orthovanadate; Myc-tagged IRS4 form precipitated with anti-Myc resin, partners found by immunoblot; some panels with or without co-expressed FLAG-IRS1, FLAG-PIK3R1 or FER. (In general: In western blotting, separated proteins are transferred to a membrane and probed.)

Assay [2] deals with T2, Myc-tagged IRS4 1–400 (human) (UniProt O14654).
T2 sequence: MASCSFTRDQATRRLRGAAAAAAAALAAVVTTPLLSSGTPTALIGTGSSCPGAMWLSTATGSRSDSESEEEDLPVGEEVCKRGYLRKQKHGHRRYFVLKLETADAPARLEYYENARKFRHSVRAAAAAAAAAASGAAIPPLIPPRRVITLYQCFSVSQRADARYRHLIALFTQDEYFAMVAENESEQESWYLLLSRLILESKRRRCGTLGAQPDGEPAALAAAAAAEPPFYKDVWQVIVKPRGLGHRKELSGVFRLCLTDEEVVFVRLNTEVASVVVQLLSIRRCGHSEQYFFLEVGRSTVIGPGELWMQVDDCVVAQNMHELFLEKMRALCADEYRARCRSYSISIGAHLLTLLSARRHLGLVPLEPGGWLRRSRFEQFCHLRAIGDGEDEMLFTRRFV
The assay is described as above.

The target of assay [3] is T3, IRS4, endogenous in OVCAR-5 cells (human (endogenous in OVCAR-5)) (UniProt O14654).
T3 sequence: T1 sequence
Kind of assay: co-IP; endogenous proteins in OVCAR-5 cell lysates; anti-FER or anti-IRS4 antibody against anti-IgG control, protein A/G beads, immunoblot; also in FER-KO and IRS4-KO cells and in cells treated with TAE684 (0.01, 0.1, 1 μM, 24 hr) or BMS-536924.

Assay [4] deals with T4, Myc-tagged IRS4 Y779F (human) (UniProt O14654).
T4 sequence: T1 sequence with Y779F
Put plainly: co-IP; HEK293FT cells transiently co-transfected; lysis in 20 mM HEPES pH 7.5, 150 mM NaCl, 1% Nonidet P-40, 1 mM sodium orthovanadate; Myc-tagged IRS4 form precipitated with anti-Myc resin, partners found by immunoblot; some panels with or without co-expressed FLAG-IRS1, FLAG-PIK3R1 or FER.

In assay [5] the target is T5, Myc-tagged IRS4 200–400 (PTB domain only) (human) (UniProt O14654).
T5 sequence: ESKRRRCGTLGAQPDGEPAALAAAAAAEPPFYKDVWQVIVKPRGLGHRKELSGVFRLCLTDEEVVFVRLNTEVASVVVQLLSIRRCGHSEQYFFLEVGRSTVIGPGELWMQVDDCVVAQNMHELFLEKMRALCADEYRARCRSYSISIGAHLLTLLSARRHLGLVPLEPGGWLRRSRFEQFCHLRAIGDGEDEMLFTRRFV
Described as above.

In assay [6] the target is T6, Myc-tagged IRS4 1–200 (PH domain only) (human) (UniProt O14654).
T6 sequence: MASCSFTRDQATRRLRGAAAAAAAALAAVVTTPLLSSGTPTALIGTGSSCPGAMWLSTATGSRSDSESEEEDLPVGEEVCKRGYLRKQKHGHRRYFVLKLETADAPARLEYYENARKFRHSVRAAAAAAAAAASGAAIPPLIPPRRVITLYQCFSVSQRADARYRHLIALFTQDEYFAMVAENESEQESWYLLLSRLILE
The assay is described as above.

Assay [7] addresses FER, endogenous in OVCAR-5 cells (human (endogenous in OVCAR-5)) (UniProt P16591). Kind of assay: co-IP; endogenous proteins in OVCAR-5 cell lysates; anti-FER or anti-IRS4 antibody against anti-IgG control, protein A/G beads, immunoblot; also in FER-KO and IRS4-KO cells and in cells treated with TAE684 (0.01, 0.1, 1 μM, 24 hr) or BMS-536924.

Regarding “FER (wild-type, no tag named) (from UniProt P16591 1-822) (enzyme)”, the binding entry in assay [1] and in assay [2] was “binds” in each case. “FER, endogenous in OVCAR-5 cells (from UniProt P16591 1-822) (enzyme)”: the binding result in assay [3] is recorded as “binds”.

In the case of “FLAG-tagged PIK3R1 (p85α) (from UniProt P27986 1-724)”, the binding result in assay [1] and in assay [4] was “binds” throughout. For “GFP-tagged FER (from UniProt P16591 1-822) (enzyme)”, the binding result in assay [1], in assay [5], in assay [2] and in assay [6] was “binds” throughout. Take “IRS1, endogenous in OVCAR-5 cells (from UniProt P35568 1-1242)”: the binding entry in assay [7] is reported as “binds”. For the substance “PIK3R2 (p85β), endogenous in OVCAR-5 cells (from UniProt O00459 1-728)”, in assay [3], the binding result is “binds”. On to “PIK3R2 expressed from pCMV3-PIK3R2 (from UniProt O00459 1-728)”, for which the binding result in assay [1] was “binds”.

The values above are taken from article PMC9098222.
